Data as given in PubChem BioAssay AID1224828 (NIAID, 2016)

Screen: 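Knock-downs that increase or decrease LPS-induced p65 nuclear translocation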 (primary screen)
Cells: mouse RAW264.7 G9 macrophage reporter cells (GFP-p65, Tnf promoter-mCherry)
Reagents: siRNA pool against mouse genes, 100 nM
Timing: 2 days siRNA transfection, then 40 min LPS before fixation
Treatment: LPS (Salmonella minnesota R595) at 10 ng/ml
Measured: 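Imaged p65 nuclear translocation ratio, normalised to the plate median, converted to robust z-scores and averaged across two replicates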
Reading the numbers: p65 translocation robust z-score: higher = more nuclear NF-kappaB p65 after LPS than the plate median; nuclear/cytoplasmic p65 ratio: higher = more nuclear NF-kappaB p65
Hit rule: 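Active if robust z is above 3.3 (negative regulators) or below -1.56, the Tlr4 control median (positive regulators); activity score 50 or more; control wells not called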
Calls: active = hit (p65 shift raised or lowered); inactive = no clear change
This is an unselected part of about 17,000 reagents tested. Of all reagents, 762 (4.5%) are marked active. 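Active calls include both raised and lowered p65 entry, mostly lowered; wells with fewer than 50 cells lack a z-score.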 Raw values are not corrected between plates.

For Serpinb3c [SID315481776], what does the deposit list?
p65 translocation robust z-score: -0.65; nuclear/cytoplasmic p65 ratio, rep 1: 1.35; nuclear/cytoplasmic p65 ratio, rep 2: 1.15; low cell count flag: enough cells to score; call: inactive

For Sgca [SID315469204], how do the results read?
p65 translocation robust z-score: -1.1; nuclear/cytoplasmic p65 ratio, rep 1: 1.33; nuclear/cytoplasmic p65 ratio, rep 2: 1.45; low cell count flag: enough cells to score; call: inactive

For Foxk2 [SID315473649], what was measured?
p65 translocation robust z-score: -0.05; nuclear/cytoplasmic p65 ratio, rep 1: 1.57; nuclear/cytoplasmic p65 ratio, rep 2: 1.65; low cell count flag: enough cells to score; call: inactive

For Tmem131l [SID315478704], what does the deposit list?
p65 translocation robust z-score: -1.25; nuclear/cytoplasmic p65 ratio, rep 1: 1.34; nuclear/cytoplasmic p65 ratio, rep 2: 1.42; low cell count flag: enough cells to score; call: inactive

With Cldn9 [SID315471707], what does the deposit list?
p65 translocation robust z-score: 0.3; nuclear/cytoplasmic p65 ratio, rep 1: 1.67; nuclear/cytoplasmic p65 ratio, rep 2: 1.8; low cell count flag: enough cells to score; call: inactive

For Ces3b [SID315466560], what was measured?
p65 translocation robust z-score: -0.99; nuclear/cytoplasmic p65 ratio, rep 1: 1.63; nuclear/cytoplasmic p65 ratio, rep 2: 1.35; low cell count flag: enough cells to score; call: inactive

For Rmc1 [SID315475323], what was measured?
p65 translocation robust z-score: -0.72; nuclear/cytoplasmic p65 ratio, rep 1: 1.46; nuclear/cytoplasmic p65 ratio, rep 2: 1.55; low cell count flag: enough cells to score; call: inactive

How did the screen score Atp10a [SID315465571]?
p65 translocation robust z-score: -0.74; nuclear/cytoplasmic p65 ratio, rep 1: 1.33; nuclear/cytoplasmic p65 ratio, rep 2: 1.58; low cell count flag: enough cells to score; call: inactive

With Eml6 [SID315479359], what was measured?
nuclear/cytoplasmic p65 ratio, rep 1: 1.58; nuclear/cytoplasmic p65 ratio, rep 2: 1.48; low cell count flag: fewer than 50 cells per well; well left out of scoring; call: inactive

How did the screen score Pcdhb19 [SID315476002]?
p65 translocation robust z-score: 0.71; nuclear/cytoplasmic p65 ratio, rep 1: 1.56; nuclear/cytoplasmic p65 ratio, rep 2: 1.49; low cell count flag: enough cells to score; call: inactive

With Rasal3 [SID315481322], how do the results read?
p65 translocation robust z-score: 0.41; nuclear/cytoplasmic p65 ratio, rep 1: 1.36; nuclear/cytoplasmic p65 ratio, rep 2: 1.67; low cell count flag: enough cells to score; call: inactive

What is on record for Adcy2 [SID315477626]?
p65 translocation robust z-score: 0.06; nuclear/cytoplasmic p65 ratio, rep 1: 1.63; nuclear/cytoplasmic p65 ratio, rep 2: 1.67; low cell count flag: enough cells to score; call: inactive

What did the screen give for Serping1 [SID315465690]?
p65 translocation robust z-score: -0.07; nuclear/cytoplasmic p65 ratio, rep 1: 1.53; nuclear/cytoplasmic p65 ratio, rep 2: 1.56; low cell count flag: enough cells to score; call: inactive

For Itpr1 [SID315467537], what does the deposit list?
p65 translocation robust z-score: -1.45; nuclear/cytoplasmic p65 ratio, rep 1: 1.28; nuclear/cytoplasmic p65 ratio, rep 2: 1.19; low cell count flag: enough cells to score; call: inactive
